Reference: PubChem BioAssay AID2685 (National Center for Advancing Translational Sciences (NCATS), 2010)
The other results are listed elsewhere or left out. The main result of the screen is listed elsewhere. These columns were measured beside it and carry no call. Compounds called inactive in the main read-out are mostly missing here. Potencies come from curve fits of mixed quality, noted in brackets.

Test: qHTS Assay for Lipid Storage Modulators in Drosophila S3 Cells;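 on cell number change: cells counted by Cell Tracker Red CMTPX staining in the red channel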
Settings: BODIPY lipid droplet fluorescence, 18-24 h; for cell number change: measured here: cell count max response, cells fed with added oleic acid
Summary of the method: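 Laser-scanning cytometry quantifies lipid droplet accumulation (500–530 nm total intensity; droplet/cell object ratio) in oleic acid-fed (400 uM added) Drosophila S3 cells treated with a concentration series. 20 uM Triacsin C defined 100% inhibition.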

[1] = measured here: cell number channel AC50, cells fed with added oleic acid
[2] = measured here: lipid fluorescence (Fed channel) AC50, cells fed with added oleic acid

SMILES	cell number change	AC50 [1]	AC50 [2]
CN(C)CCCn1cnc2c1c(=O)[nH]c(=O)n2Cc1ccccc1	5.31%	–	–
CC(C)Cn1c(N)c(C(=O)CSc2cc(Cl)ccc2Cl)c(=O)n(C)c1=O	19.4%	1.84 µM [rising, partial curve, poor fit]	20.6 µM [rising, partial curve, poor fit]
Cc1ccc(N/C=C/C(=O)C(C)(C)C)c(O)c1	-62.6%	16.4 µM [falling, partial curve]	20.6 µM [falling, partial curve]
COc1ccccc1NC(=O)C(C)OC(=O)Cn1cnc2c1c(=O)n(C)c(=O)n2C (configuration not stated)	-25%	–	29.1 µM [falling, single point]
CC(C)CN(C(=O)c1nn(C)c(=O)c2ccccc12)c1nc2ccccc2s1	6.45%	–	–
CCN(C(=O)COC(=O)/C=C/c1cnc2ccccc2n1)C1CCS(=O)(=O)C1 (configuration not stated)	–	–	0.231 µM [falling, full curve, poor fit]
O=C(CN(c1cccc(C(F)(F)F)c1)S(=O)(=O)c1ccc(Cl)c([N+](=O)[O-])c1)NCc1ccccc1Cl	-7.58%	–	29.1 µM [falling, single point]
CC(=O)c1cccc(NC(=O)N2CCCC2C(=O)NCc2ccc(F)cc2)c1 (configuration not stated)	-4.2%	–	5.8 µM [rising, full curve]
O=C(N/N=C/c1coc2ccccc2c1=O)c1ccncc1	-16.8%	–	29.1 µM [falling, single point]
CCCOc1ccc(C(F)(F)F)cc1NS(=O)(=O)c1ccc(Cl)nc1	80.3%	–	–
COc1cc(/C=N/OCC(=O)NC2CCS(=O)(=O)C2)ccc1OC(F)F (configuration not stated)	–	–	3.66 µM [falling, partial curve]
Cn1c(/C(C#N)=C/c2ccc(-c3ccc(S(N)(=O)=O)cc3)o2)nc2ccccc21	-49.1%	5.8 µM [rising, partial curve]	29.1 µM [falling, single point]
COc1cc(/C=N/NC(=O)c2cc(-c3ccccc3OC(C)C)nc3ccccc23)ccc1O	12.1%	–	1.03 µM [falling, full curve, poor fit]
CCN(C(=O)COC(=O)c1cn(-c2ccccc2)nc1-c1ccccc1)C1CCS(=O)(=O)C1 (configuration not stated)	–	–	18.4 µM [rising, single point]
CC(/C=N/NC(=O)c1cc(C(C)C)[nH]n1)=C\c1ccccc1	-43.2%	18.4 µM [falling, partial curve, poor fit]	–
CCOc1ccc2nc(SCC(=O)N(C)C3CCS(=O)(=O)C3)[nH]c2c1 (configuration not stated)	-28.5%	–	23.1 µM [falling, partial curve, poor fit]
COc1ccc(NC(=O)CCN2C(=O)[C@@H]3[C@H](C2=O)[C@H]2C=C[C@@H]3C2)cc1	21.9%	0.731 µM [rising, full curve, poor fit]	0.82 µM [rising, partial curve, poor fit]
COc1ccc(-c2nnc3n2CCCCC3)cc1	5.22%	–	29.1 µM [rising, single point]
CCOC(=O)c1ccccc1NC(=O)CSc1nc2c(c(=O)n(C)c(=O)n2C)n1C	–	0.731 µM [rising, single point]	–
O=C(O)c1cccc(N/N=C/c2cccnc2)c1	-30.5%	1.03 µM [falling, full curve, poor fit]	3.66 µM [falling, full curve, poor fit]

One compound at a time, as listed above:
`CC(C)Cn1c(N)c(C(=O)CSc2cc(Cl)ccc2Cl)c(=O)n(C)c1=O` is listed with cell number change: 19.4%; AC50 [1]: 1.84 µM [rising, partial curve, poor fit]; AC50 [2]: 20.6 µM [rising, partial curve, poor fit]
`CN(C)CCCn1cnc2c1c(=O)[nH]c(=O)n2Cc1ccccc1` is listed with cell number change: 5.31%

(listing goes on)

SMILES	cell number change	AC50 [1]	AC50 [2]
Cc1cc(C)c(C)c(OCc2nc(-c3cccnc3)no2)c1	-19.5%	–	–
COc1ccc(-n2c(C)cc(C(=O)CN3CCC(C)CC3)c2C)cc1	-85.2%	–	–
O=C(CCNS(=O)(=O)c1cccs1)N1CCc2ccccc2C1	13.9%	–	1.3 µM [rising, full curve, poor fit]
Cc1ccc(S(=O)(=O)NCC(=O)NCc2cc(=O)n(C)c(=O)n2C)cc1C	8.11%	–	18.4 µM [rising, single point]
CCOc1ccc(NC(=O)CN(C)C(=O)c2cn(-c3ccccc3)nc2-c2cccs2)cc1OCC	-32.3%	0.00517 µM [falling, full curve, poor fit]	–
CCCC1=NN2C(=N)/C(=C\c3cc(C)n(-c4cc(C)cc(C)c4)c3C)C(=O)N=C2S1	25.1%	–	0.13 µM [rising, full curve, poor fit]
N/C(Cc1ccc([N+](=O)[O-])cc1)=N\OC(=O)c1ccccc1Br	-0.2%	–	20.6 µM [rising, partial curve, poor fit]
C=CCc1c(C)nc2c(-c3ccccc3)cnn2c1N1CCOCC1	17.9%	–	3.26 µM [rising, full curve, poor fit]
CCOC(=O)c1cnc2ccc(OCC)cc2c1N1CCN(C)CC1	-37.5%	0.164 µM [falling, full curve, poor fit]	0.13 µM [falling, full curve, poor fit]
CC(=O)N(C)c1ccc(NC(=O)Nc2cccc3ccccc23)cc1	-8.38%	–	0.092 µM [rising, full curve, poor fit]
O=c1cc(-c2ccccc2)[nH]c2[nH]n(-c3ccccc3)c(=O)c12	8.53%	–	0.731 µM [falling, full curve]
COC(=O)c1cn(C(=O)OC)c2ccccc12	–	–	3.66 µM [falling, partial curve, poor fit]
CC(CC(=O)Nc1cc([N+](=O)[O-])ccc1Cl)c1ccccc1 (configuration not stated)	–	2.31 µM [rising, partial curve]	–
CCc1ccc(Oc2coc3cc(O)ccc3c2=O)cc1	20.6%	–	–
COc1cc(Cl)ccc1OCc1cc(C(=O)N2CCCCC2c2cccnc2)no1 (configuration not stated)	8.56%	–	3.66 µM [falling, single point]
CC(=O)Nc1nc2n(n1)C(c1ccccc1)C=C(c1ccccc1)N2 (configuration not stated)	-34.3%	0.231 µM [falling, full curve, poor fit]	–
COc1cccc(C(=O)/C=C/Nc2ccc(S(=O)(=O)Nc3ncccn3)cc2)c1	15.7%	–	0.0517 µM [falling, full curve, poor fit]
O=C(COc1ccccc1)NCc1nnc(SCC(=O)Nc2nccs2)n1-c1ccccc1	-8.86%	–	0.82 µM [rising, single point]
CCOC(=O)N1CCN(C(=O)c2ccc3c(c2)NC(=O)/C(=C\c2ccc(OC)c(OC)c2)S3)CC1	-22.1%	–	0.184 µM [rising, full curve, poor fit]
O=Cc1ccc(Cl)c(Cl)c1	20.2%	–	4.11 µM [falling, single point]

SMILES	cell number change	AC50 [1]	AC50 [2]
COC(=O)c1ccc(NC(=O)C2CCCN2S(=O)(=O)c2ccc(OC)cc2)cc1 (configuration not stated)	-10.4%	–	32.6 µM [falling, single point]
CC1=C(C(=O)OCCC#N)C(c2cc3c(cc2Br)OCO3)NC(=O)N1 (configuration not stated)	10.5%	–	–
Cc1cccc2cc(CN(CCN3CCOCC3)C(=O)NCc3ccccc3)c(=O)[nH]c12	22.6%	–	0.259 µM [rising, full curve, poor fit]
O=C(COC(=O)c1cccs1)NCc1ccccc1	1.44%	–	–
CCc1ccc(S(=O)(=O)/N=C2\C=C(Nc3ccc(C(=O)O)cc3)C(=O)c3ccccc32)cc1	-44.8%	13 µM [falling, partial curve]	–
COc1ccccc1N(CC(O)Cn1nc(C)cc1C)S(=O)(=O)c1ccccc1 (configuration not stated)	1.99%	–	–
CCc1nc2c(C#N)c(-c3ccc(Cl)cc3)ccn2n1	–	1.03 µM [rising, partial curve]	0.651 µM [rising, full curve, poor fit]
CC(C)CN1CCC(=O)N(CCC#N)CC1	22%	–	29.1 µM [rising, single point]
Fc1ccccc1NC(=S)Nc1ccc(CN2CCOCC2)cc1	-1.41%	–	0.731 µM [falling, single point]
O=C(NCCN=C1NS(=O)(=O)c2ccccc21)c1ccc2nccnc2c1	1.7%	4.11 µM [falling, single point]	4.11 µM [falling, single point]
CN1C(=O)C2(N=c3ccccc3=N2)c2ccccc21	-4.98%	0.92 µM [rising, full curve, poor fit]	–
NS(=O)(=O)c1ccc(N2CCN(CCOc3ccc(Cl)cc3)CC2)nc1	-0.42%	–	6.51 µM [rising, single point]
CCCc1cc(=O)oc2cc(OC(C)C(=O)NCc3ccccn3)c(Cl)cc12 (configuration not stated)	-25.4%	7.31 µM [falling, partial curve, poor fit]	1.3 µM [falling, full curve]
CN(Cc1ccccc1Cl)C(=O)C1CCC(=O)N(CCc2cccc(F)c2)C1 (configuration not stated)	21.5%	–	29.1 µM [falling, single point]
CCc1ccc(N2C(=O)CN(Cc3cc(OC)c(OC)c(OC)c3)C2=S)cc1	-18.9%	2.31 µM [rising, partial curve]	6.51 µM [rising, single point]
Cc1ccc2c(c1)C(O)(c1c(C)[nH]c3ccccc13)C(=O)N2 (configuration not stated)	-61.6%	29.1 µM [falling, single point]	29.1 µM [falling, single point]
CCN(CC)S(=O)(=O)c1cccc(C(=O)N2CCCCC2)c1	16.9%	–	3.66 µM [falling, single point]
Cc1ccc(NC(=O)c2nc[nH]c2C(=O)NCc2ccccc2)cc1	-61.8%	25.9 µM [falling, single point]	0.146 µM [falling, single point]

Copied from the list:
CN(Cc1ccccc1Cl)C(=O)C1CCC(=O)N(CCc2cccc(F)c2)C1 (configuration not stated) | cell number change: 21.5%
NS(=O)(=O)c1ccc(N2CCN(CCOc3ccc(Cl)cc3)CC2)nc1 | cell number change: -0.42%
CN1C(=O)C2(N=c3ccccc3=N2)c2ccccc21 | cell number change: -4.98%
CCN(CC)S(=O)(=O)c1cccc(C(=O)N2CCCCC2)c1 | cell number change: 16.9%
